Test results reported in paper PMC10519595.
Results are given in words; binding and its absence hold for the method and conditions named. Tags and fused reporters may be left off the sequences shown.

Target: T1, high mobility group box 1 (HMGB1), full length, T18 fusion (T18-HMGB1) (human), P09429
T1 chain: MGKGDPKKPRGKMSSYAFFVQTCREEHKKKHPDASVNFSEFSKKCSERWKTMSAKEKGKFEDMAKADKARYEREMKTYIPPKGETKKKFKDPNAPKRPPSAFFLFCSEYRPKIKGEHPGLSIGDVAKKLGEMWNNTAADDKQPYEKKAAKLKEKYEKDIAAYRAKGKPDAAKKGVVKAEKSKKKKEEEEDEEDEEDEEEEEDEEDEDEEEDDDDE
Assay: two-hybrid
Settings: remark: other sources report otherwise

B1: high mobility group box 1 (HMGB1), full length, T18 fusion (T18-HMGB1), P09429 1-215 (protein)
chain: MGKGDPKKPRGKMSSYAFFVQTCREEHKKKHPDASVNFSEFSKKCSERWKTMSAKEKGKFEDMAKADKARYEREMKTYIPPKGETKKKFKDPNAPKRPPSAFFLFCSEYRPKIKGEHPGLSIGDVAKKLGEMWNNTAADDKQPYEKKAAKLKEKYEKDIAAYRAKGKPDAAKKGVVKAEKSKKKKEEEEDEEDEEDEEEEEDEEDEDEEEDDDDE
- binding: no binding
